From publication PMC12267381
Results are given in words; binding and its absence hold for the method and conditions named. Binding seen in cells or lysates may run through a third protein. These calls come from enrichment with a bait or labelling near it, and not all partners need be listed.

Target: T1, Sterol regulatory element binding protein 1 (mouse (endogenous in bEND.3)) (UniProt Q9WTN3)
T1 sequence: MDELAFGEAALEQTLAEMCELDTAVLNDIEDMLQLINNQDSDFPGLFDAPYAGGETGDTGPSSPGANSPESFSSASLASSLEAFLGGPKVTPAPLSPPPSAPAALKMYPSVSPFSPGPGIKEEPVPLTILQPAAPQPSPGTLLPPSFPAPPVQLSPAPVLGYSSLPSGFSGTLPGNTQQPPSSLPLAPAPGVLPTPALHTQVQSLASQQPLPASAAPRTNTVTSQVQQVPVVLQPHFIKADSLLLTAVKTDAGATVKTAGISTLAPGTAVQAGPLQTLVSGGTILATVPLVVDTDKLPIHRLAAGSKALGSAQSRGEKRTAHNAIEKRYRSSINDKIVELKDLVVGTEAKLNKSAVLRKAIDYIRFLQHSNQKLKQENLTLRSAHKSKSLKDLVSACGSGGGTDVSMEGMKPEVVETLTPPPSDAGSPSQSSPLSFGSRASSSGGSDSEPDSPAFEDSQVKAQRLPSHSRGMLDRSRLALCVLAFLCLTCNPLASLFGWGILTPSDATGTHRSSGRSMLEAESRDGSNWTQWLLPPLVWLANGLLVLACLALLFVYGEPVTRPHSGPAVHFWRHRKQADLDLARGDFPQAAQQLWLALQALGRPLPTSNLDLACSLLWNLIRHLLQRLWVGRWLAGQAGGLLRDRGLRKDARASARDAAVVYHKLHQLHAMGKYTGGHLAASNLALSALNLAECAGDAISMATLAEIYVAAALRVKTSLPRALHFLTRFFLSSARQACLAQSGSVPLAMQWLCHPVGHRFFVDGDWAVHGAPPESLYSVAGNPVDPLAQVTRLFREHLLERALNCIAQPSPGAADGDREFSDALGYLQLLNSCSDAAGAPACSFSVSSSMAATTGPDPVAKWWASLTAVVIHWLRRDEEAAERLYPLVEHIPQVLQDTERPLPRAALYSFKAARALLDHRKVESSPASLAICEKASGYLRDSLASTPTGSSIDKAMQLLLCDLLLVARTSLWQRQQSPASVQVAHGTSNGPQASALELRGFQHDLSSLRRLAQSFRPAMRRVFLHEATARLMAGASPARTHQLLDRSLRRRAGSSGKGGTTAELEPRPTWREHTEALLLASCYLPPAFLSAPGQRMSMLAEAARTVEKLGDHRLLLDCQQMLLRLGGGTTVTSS
Assay: affinity purification with mass spectrometry; proteins precipitated with anti-SREBP1 antibody from endothelial cells treated for 24 h with Erastin or Erastin + SDF-1α, identified by mass spectrometry

binding: binds
B1: metadherin (protein, UniProt Q80WJ7 1-579)
chain: MAARSWQDELAQQAEEGSARLRELLSVGLGFLRTELGLDLGLEPKRYPGWVILVGTGALGLLLLFLLGYGWAAACAGARKKRRSPPRKREEAAPPTPAPDDLAQLKNLRSEEQKKKNRKKLPEKPKPNGRTVEVPEDEVVRNPRSITAKQAPETDKKNEKSKKNKKKSKSDAKAVQNSSRHDGKEVDEGAWETKISHREKRQQRKRDKVLTDSGSLDSTIPGIENIITVTTEQLTTASFPVGSKKNKGDSHLNVQVSNFKSGKGDSTLQVSSRLNENLTVNGGGWSEKSVKLSSQLSEEKWNSVPPASAGKRKTEPSAWTQDTGDTNANGKDWGRNWSDRSIFSGIGSTAEPVSQSTTSDYQWDVSRNQPYIDDEWSGLNGLSSADPSSDWNAPAEEWGNWVDEDRASLLKSQEPISNDQKVSDDDKEKGEGALPTGKSKKKKKKKKKQGEDNSHTQDTEDLEKDTREELPVNTSKARPKQEKACSLKTMSTSDPAEVLIKNSQPVKTLPPAISAEPSITLSKGDSDNSSSQVPPMLQDTDKPKSNAKQNSVPPSQTKSETNWESPKQIKKKKKARRET
